Results are given in words; binding and its absence hold for the method and conditions named. Some entries that bind do so weakly or less than the wild type. Tags and fused reporters may be left off the sequences shown.
Columns and labels:
hTregL1-his (human) [1] = molecular target: T1, hTregL1-his (human) (UniProt Q96JA1); experiment: epitope mapping by CL-MS, XL-MS and affinity-MS
T1 sequence (chain, N-glycosylation at N116 and N650 (as printed)): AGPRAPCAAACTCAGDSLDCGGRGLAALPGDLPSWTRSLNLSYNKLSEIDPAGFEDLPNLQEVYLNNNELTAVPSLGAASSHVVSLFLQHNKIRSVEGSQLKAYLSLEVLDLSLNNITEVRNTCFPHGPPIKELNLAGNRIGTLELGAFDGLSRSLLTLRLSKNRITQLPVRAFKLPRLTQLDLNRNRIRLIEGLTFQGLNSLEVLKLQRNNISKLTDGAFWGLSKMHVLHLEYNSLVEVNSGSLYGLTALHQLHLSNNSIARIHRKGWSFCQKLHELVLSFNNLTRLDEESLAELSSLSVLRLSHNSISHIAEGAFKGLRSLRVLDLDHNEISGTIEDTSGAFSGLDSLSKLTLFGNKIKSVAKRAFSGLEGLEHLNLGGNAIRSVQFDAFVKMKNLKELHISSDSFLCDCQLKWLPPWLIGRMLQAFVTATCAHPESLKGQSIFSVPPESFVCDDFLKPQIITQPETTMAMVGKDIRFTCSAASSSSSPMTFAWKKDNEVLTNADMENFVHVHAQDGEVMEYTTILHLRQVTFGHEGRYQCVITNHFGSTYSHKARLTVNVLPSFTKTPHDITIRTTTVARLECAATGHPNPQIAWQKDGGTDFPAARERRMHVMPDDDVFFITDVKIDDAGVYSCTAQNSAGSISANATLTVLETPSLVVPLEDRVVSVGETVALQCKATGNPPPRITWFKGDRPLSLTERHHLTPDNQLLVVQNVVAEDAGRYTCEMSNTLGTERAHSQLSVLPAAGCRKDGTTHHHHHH

hTregL1-his (human) [2] = molecular target: T1, hTregL1-his (human); experiment: antigen on antibody-coupled CNBr Sepharose column

binding (hTregL1-his (human) [1]): binds | binding (hTregL1-his (human) [2]): binds
B1: GTC310-01-hlgG1 (antibody, human IgG1, kappa, V domains shown)
VH: EVQLLESGGGLVQPGGSLRLSCAASGFTFSNYAMSWVRQAPGKGLEWVSVISHGGGSTYYADSVKGRFTISRDNSKNTLYLQMNSLRAEDTAVYYCARVISNCHLGVCYYSNGMDVWGQGTLVTVSS
VL: QLVLTQPPSVSAAPGQRVSISCSGSSSNIGDNYVSWYQQVPGSAPKLLIYDNNKRPSGIPDRFSASKSGTSATLGITGLQTGDEADYYCATWDGSLSAGRVFGGGTKLTVLR

From patent EP4678655A1
